# The other results are listed elsewhere or left out.
# B1: Gal 12 (Homo sapiens), Q96DT0 (protein)
# chain: MSQPSGGRAPGTRIYSWSCPTVMSPGEKLDPIPDSFILQPPVFHPVVPYVTTIFGGLHAGKMVMLQGVVPLDAHRFQVDFQCGCSLCPRPDIAFHFNPRFHTTKPHVICNTLHGGRWQREARWPHLALRRGSSFLILFLFGNEEVKVSVNGQHFLHFRYRLPLSHVDTLGIFGDILVEAVGFLNINPFVEGSREYPAGHPFLLMSPRLEVPCSHALPQGLSPGQVIIVRGLVLQEPKHFTVSLRDQAAHAPVTLRASFADRTLAWISRWGQKKLISAPFLFYPQRFFEVLLLFQEGGLKLALNGQGLGATSMNQQALEQLRELRISGSVQLYCVHS
# Key:
# Test in all cases: glycan array binding signal (z-score within array); higher = stronger binding
# Conditions in all cases: glycan notation: IUPAC condensed, linker removed
# [1] = target: Fuc(a1-2)Gal(b1-4)GlcNAc(b1-2)[Fuc(a1-2)Gal(b1-4)GlcNAc(b1-4)]Man(a1-3)[Fuc(a1-2)Gal(b1-4)GlcNAc(b1-2)Man(a1-6)]Man(b1-4)GlcNAc(b1-4)GlcNAc
# Method in brief: (§1)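 Arrays were curated from the Consortium for Functional Glycomics database, 3228 in total, and kept only where the protein sequence was available. Binding is expressed as a within-array Z-score. This score was averaged across arrays of the same protein sequence at different concentrations or buffers and across linkers, and negative values can be read as non-binding.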
# [2] = target: Fuc(a1-2)Gal(b1-4)GlcNAc(b1-3)Gal(b1-4)GlcNAc
# Method in brief: as §1
# [3] = target: Fuc(a1-2)Gal(b1-4)GlcNAc(b1-3)Gal(b1-4)GlcNAc(b1-2)Man(a1-3)[Fuc(a1-2)Gal(b1-4)GlcNAc(b1-3)Gal(b1-4)GlcNAc(b1-2)Man(a1-6)]Man(b1-4)GlcNAc(b1-4)GlcNAc
# Method in brief: as §1
# [4] = target: Fuc(a1-2)Gal(b1-4)GlcNAc(b1-3)Gal(b1-4)GlcNAc(b1-3)Gal(b1-4)GlcNAc
# Method in brief: as §1
# [5] = target: Fuc(a1-2)Gal(b1-4)GlcNAc(b1-3)GalNAc
# Method in brief: as §1
# [6] = target: Fuc(a1-2)Gal(b1-4)GlcNAc(b1-3)[Fuc(a1-2)Gal(b1-4)GlcNAc(b1-6)]GalNAc
# Method in brief: as §1
# [7] = target: Fuc(a1-2)Gal(b1-4)GlcNAc(b1-3)[Fuc(a1-3)[Gal(b1-4)]GlcNAc(b1-6)]Gal(b1-4)Glc
# Method in brief: as §1
# [8] = target: Fuc(a1-2)Gal(b1-4)GlcNAc(b1-6)GalNAc
# Method in brief: as §1
# [9] = target: Fuc(a1-2)Gal(b1-4)GlcNAc6S
# Method in brief: as §1
# [10] = target: Fuc(a1-2)Gal(b1-4)[Fuc(a1-3)]GlcNAc
# Method in brief: as §1
# [11] = target: Fuc(a1-2)Gal(b1-4)[Fuc(a1-3)]GlcNAc(b1-2)Man(a1-3)[Fuc(a1-2)Gal(b1-4)[Fuc(a1-3)]GlcNAc(b1-2)Man(a1-6)]Man(b1-4)GlcNAc(b1-4)GlcNAc
# Method in brief: as §1
# [12] = target: Fuc(a1-2)Gal(b1-4)[Fuc(a1-3)]GlcNAc(b1-2)Man(a1-3)[Fuc(a1-2)Gal(b1-4)[Fuc(a1-3)]GlcNAc(b1-2)Man(a1-6)]Man(b1-4)GlcNAc(b1-4)[Fuc(a1-6)]GlcNAc
# Method in brief: as §1
# [13] = target: Fuc(a1-2)Gal(b1-4)[Fuc(a1-3)]GlcNAc(b1-2)[Fuc(a1-2)Gal(b1-4)[Fuc(a1-3)]GlcNAc(b1-4)]Man(a1-3)[Fuc(a1-2)Gal(b1-4)[Fuc(a1-3)]GlcNAc(b1-2)Man(a1-6)]Man(b1-4)GlcNAc(b1-4)GlcNAc
# Method in brief: as §1
# [14] = target: Fuc(a1-2)Gal(b1-4)[Fuc(a1-3)]GlcNAc(b1-3)Gal(b1-4)[Fuc(a1-3)]GlcNAc
# Method in brief: as §1
# [15] = target: Fuc(a1-2)Gal(b1-4)[Fuc(a1-3)]GlcNAc(b1-3)Gal(b1-4)[Fuc(a1-3)]GlcNAc(b1-3)Gal(b1-4)[Fuc(a1-3)]GlcNAc
# Method in brief: as §1
# [16] = target: Fuc(a1-2)Gal(b1-4)[Fuc(a1-3)]GlcNAc(b1-3)GalNAc
# Method in brief: as §1
# [17] = target: Fuc(a1-2)Gal(b1-4)[Fuc(a1-3)]GlcNAc(b1-3)[Neu5Ac(a2-6)Gal(b1-4)GlcNAc(b1-6)]Gal(b1-4)Glc
# Method in brief: as §1
# [18] = target: Fuc(a1-2)Gal3S(b1-4)GlcNAc
# Method in brief: as §1
# [19] = target: Fuc(a1-2)Gal6S(b1-3)GlcNAc
# Method in brief: as §1
# [20] = target: Fuc(a1-2)Gal6S(b1-3)GlcNAc6S
# Method in brief: as §1
# Fuc(a1-2)Gal6S(b1-4)Glc = target: Fuc(a1-2)Gal6S(b1-4)Glc
# Method in brief: as §1
# [21] = target: Fuc(a1-2)Gal6S(b1-4)Glc6S
# Method in brief: as §1
# [22] = target: Fuc(a1-2)Gal6S(b1-4)GlcNAc
# Method in brief: as §1
# Fuc(a1-2)[Gal(a1-3)]Gal = target: Fuc(a1-2)[Gal(a1-3)]Gal
# Method in brief: as §1
# [23] = target: Fuc(a1-2)[Gal(a1-3)]Gal(b1-3)GalNAc
# Method in brief: as §1
# [24] = target: Fuc(a1-2)[Gal(a1-3)]Gal(b1-3)GalNAc(b1-3)Gal(a1-4)Gal(b1-4)Glc
# Method in brief: as §1
# [25] = target: Fuc(a1-2)[Gal(a1-3)]Gal(b1-3)GlcNAc
# Method in brief: as §1
# [26] = target: Fuc(a1-2)[Gal(a1-3)]Gal(b1-3)GlcNAc(b1-2)Man(a1-3)[Fuc(a1-2)[Gal(a1-3)]Gal(b1-3)GlcNAc(b1-2)Man(a1-6)]Man(b1-4)GlcNAc(b1-4)GlcNAc
# Method in brief: as §1
# [27] = target: Fuc(a1-2)[Gal(a1-3)]Gal(b1-3)GlcNAc(b1-2)Man(a1-3)[Fuc(a1-2)[Gal(a1-3)]Gal(b1-3)GlcNAc(b1-2)Man(a1-6)]Man(b1-4)GlcNAc(b1-4)[Fuc(a1-6)]GlcNAc
# Method in brief: as §1
# [28] = target: Fuc(a1-2)[Gal(a1-3)]Gal(b1-3)GlcNAc(b1-3)GalNAc
# Method in brief: as §1
binder,measurement,setting,value
B1,glycan array binding signal (z-score),[1],-0.145
same,glycan array binding signal (z-score),[2],-0.659
same,glycan array binding signal (z-score),[3],0.889
same,glycan array binding signal (z-score),[4],0.023
same,glycan array binding signal (z-score),[5],-0.012
same,glycan array binding signal (z-score),[6],-0.736
same,glycan array binding signal (z-score),[7],-0.761
same,glycan array binding signal (z-score),[8],0.055
same,glycan array binding signal (z-score),[9],1.1
same,glycan array binding signal (z-score),[10],0.054
same,glycan array binding signal (z-score),[11],1.49
same,glycan array binding signal (z-score),[12],0.189
same,glycan array binding signal (z-score),[13],3.71
same,glycan array binding signal (z-score),[14],-0.629
same,glycan array binding signal (z-score),[15],0.109
same,glycan array binding signal (z-score),[16],5.15
same,glycan array binding signal (z-score),[17],0.008
same,glycan array binding signal (z-score),[18],-1.01
same,glycan array binding signal (z-score),[19],0.631
same,glycan array binding signal (z-score),[20],1.29
same,glycan array binding signal (z-score),Fuc(a1-2)Gal6S(b1-4)Glc,0.569
same,glycan array binding signal (z-score),[21],-0.156
same,glycan array binding signal (z-score),[22],-0.472
same,glycan array binding signal (z-score),Fuc(a1-2)[Gal(a1-3)]Gal,0.262
same,glycan array binding signal (z-score),[23],-0.6
same,glycan array binding signal (z-score),[24],-1.32
same,glycan array binding signal (z-score),[25],0.787
same,glycan array binding signal (z-score),[26],-0.674
same,glycan array binding signal (z-score),[27],-0.117
same,glycan array binding signal (z-score),[28],0.547

# Reformatted: entries from further up.
binder	measurement	setting	value
B1	glycan array binding signal (z-score)	[11]	1.49
same	glycan array binding signal (z-score)	[12]	0.189

# Source: the supplement of paper PMC8728848
